Consider 42 sequences from paper PMC7819943, “Rice protein-binding microarrays: a tool to detect cis-acting elements near promoter regions in rice”.

By UniProt entry, the sequences of proteins in these tests, tags left out.
UniProt Q0JBA9, entry or part of it: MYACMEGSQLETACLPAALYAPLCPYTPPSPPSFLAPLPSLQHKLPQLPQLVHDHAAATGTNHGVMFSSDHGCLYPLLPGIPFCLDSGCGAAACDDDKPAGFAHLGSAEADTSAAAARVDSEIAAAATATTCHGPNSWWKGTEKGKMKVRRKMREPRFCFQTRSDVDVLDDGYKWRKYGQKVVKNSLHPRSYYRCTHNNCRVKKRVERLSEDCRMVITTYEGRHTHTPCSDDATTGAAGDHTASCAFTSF

The list shows a part of the results.

The target of this experiment is OsWRKY34 (Oryza sativa, UniProt Q0JBA9 1-250). Briefly: protein-binding microarray (RPBM); PBS, 2% BSA, 51.3 ng/ul salmon testes DNA, 50 uM zinc acetate, 200 nM TF, 25 C, 1 h; high values mean tight binding. The conditions noted are these: protein: recombinant; tags: N-terminal polyhistidine and DsRed monomer fusion (pET32a); label: CyDye5-dUTP incorporated in the synthesized complementary strand; 3' TTTTT single-stranded linker to array surface; dsDNA, one strand shown. In a few lines: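 Ni–NTA purification followed expression in E. coli BL21-CodonPlus of transcription factors fused N-terminally to a polyhistidine tag and DsRed. At 200 nM in PBS with 2% BSA, salmon testes DNA and 50 µM zinc acetate, the protein was incubated for 1 h at 25 °C with a custom Agilent array that had been primer-extended with Cy5-dUTP and blocked with 2% BSA. After washing, the array was read on an Axon 4000B scanner. The binding signal is per-feature fluorescence intensity in arbitrary units.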
On to “GGAACTACCACAGTGGTGCTTCTTGCTGCTGAGTTCCTGACGGAGTCACCTAGTGCAG”, for which the binding signal was 8270 fluorescence intensity (a.u.). As for “TCCATACAAACCATACACATTGTGACCATGACACTCAATCCGGAGTCACCTAGTGCAG”, the binding signal is 8100 fluorescence intensity (a.u.). As to “TCGGGATTTCTTATTTGGGAGGATATGTTTCGGGTTTCTACGGAGTCACCTAGTGCAG”, the binding signal was 10600 fluorescence intensity (a.u.). Turning to “CATGACCACCGTCGGCTACGGCGACTTCGTCCCGCCAACGCGGAGTCACCTAGTGCAG”, the binding signal was 8100 fluorescence intensity (a.u.). “ACCAACTTCCCAATCTCACCCACCCCACCAATCCCCACCACGGAGTCACCTAGTGCAG”: the binding signal is 8540 fluorescence intensity (a.u.). The result for “GAGCCGCGCCGGTGCCACCACTCGCGCCGCCGCTCCGGCGCGGAGTCACCTAGTGCAG” reads 8150 fluorescence intensity (a.u.); that for “TATTTTTTGGTTGTCCTTTGTTTTTTTAAAAAATATTTGTCGGAGTCACCTAGTGCAG”, 8170 fluorescence intensity (a.u.); that for “ATGGGGCTCTTTTGGTTTGTTTGGTAGTTGGGTGGTGATGCGGAGTCACCTAGTGCAG”, 15500 fluorescence intensity (a.u.). In the case of “GTCAGTTCGCCGGCCGCCGCCGCCTCCGACGATCCCCATCCGGAGTCACCTAGTGCAG”, the binding signal is 8950 fluorescence intensity (a.u.). In the case of “TACTATCTTAGGTTGTGTTCTGTTATCAGCTTTTCTAACCCGGAGTCACCTAGTGCAG” it was 8310 fluorescence intensity (a.u.). The result for “CGCACATCTGCCTCCTGTTCACGCGAACCCACCACCCATGCGGAGTCACCTAGTGCAG” reads 9260 fluorescence intensity (a.u.); that for “ACGAGATCCACCATGCAGCCTTCACGCGACAGTCGCACATCGGAGTCACCTAGTGCAG”, 8040 fluorescence intensity (a.u.); that for “CCCTGTTTTCCACGGAGGAGCATAAATCCTGATCATTTCTCGGAGTCACCTAGTGCAG”, 8700 fluorescence intensity (a.u.). In the case of “GCTCATGATCTCAATCCTCGTCTGTTTTTTCTCACGAAATCGGAGTCACCTAGTGCAG” it was 10700 fluorescence intensity (a.u.); in that of “ATGATGTCGGGCTCCACCCGTGGGTCTGCTACTGCCGCTCCGGAGTCACCTAGTGCAG”, 8450 fluorescence intensity (a.u.); in that of “TGATTATGCCATCCATTTTTCTAGAGGTCATTGAATTTACCGGAGTCACCTAGTGCAG”, 10100 fluorescence intensity (a.u.). For the sequence “CTCCTCCGCGTAGCATCGCTGTTGAATCGTTATCCTTTCTCGGAGTCACCTAGTGCAG”, the binding signal was 9320 fluorescence intensity (a.u.). The result for “TACTTTCTTTTATGAATATGTTTCTTTCAATATGGCATTACGGAGTCACCTAGTGCAG” reads 8570 fluorescence intensity (a.u.); that for “CCGAGAGATTTTGATTTGTTGCTGTAGATTGATTGTGTGACGGAGTCACCTAGTGCAG”, 9780 fluorescence intensity (a.u.). For the sequence “CGTTTTCATCCTTATCTATATCAATATTTTTTTTGTCTTACGGAGTCACCTAGTGCAG”, the binding signal was 9730 fluorescence intensity (a.u.). For “GCCTACATGACAGCGACTCGCCGCCTTCACTGATTCGTGACGGAGTCACCTAGTGCAG”, the binding signal is 8300 fluorescence intensity (a.u.). In the case of “CCGGCGGGTGAGAAAAGTTTCGGGCGGGGTCAGCGACGGTCGGAGTCACCTAGTGCAG” it was 8980 fluorescence intensity (a.u.). The result for “TTTGTCGAAATATAATCATGTGTGGCCTTGTTGTAAAGATCGGAGTCACCTAGTGCAG” reads 8140 fluorescence intensity (a.u.).

As for “CTTTCTTATTGCAACTCCAGACGATTGGCTGTGGTCCCTCCGGAGTCACCTAGTGCAG”, the binding signal was 8070 fluorescence intensity (a.u.). On to “GTGGTTGGTTGGTGCGGTTGCGGCGGGTGATCGAACGATGCGGAGTCACCTAGTGCAG”, for which the binding signal was 12100 fluorescence intensity (a.u.).

Consider “TATACCTCTAATTTGTCTGATCTGTACTGCAGGCCCTACACGGAGTCACCTAGTGCAG”, for which the binding signal was 9480 fluorescence intensity (a.u.). In the case of “GAGCTCTGCAGTTACCGTCTATATATATTACCGTTAGTCACGGAGTCACCTAGTGCAG” it was 10200 fluorescence intensity (a.u.); in that of “CAGTAATTGTCACTATCTTATTACACATTATTCTGTCCAGCGGAGTCACCTAGTGCAG”, 8060 fluorescence intensity (a.u.). In the case of “ATTCAGTATGCAGCTTGTGCCACCTTCAGGTTCTTGGCTTCGGAGTCACCTAGTGCAG”, the binding signal was 8050 fluorescence intensity (a.u.). The result for “GTGAGTTAGTTTGGTGTGTTCATGTATGTATCAATGCATGCGGAGTCACCTAGTGCAG” reads 8220 fluorescence intensity (a.u.); that for “CATCGGCTGACATCGACGTCGGCTCTTTGTTGATCATCATCGGAGTCACCTAGTGCAG”, 8090 fluorescence intensity (a.u.). Turning to “TTAGGGATCTGACTGTTACGCACCCATACCATTTCTAACACGGAGTCACCTAGTGCAG”, the binding signal is 8200 fluorescence intensity (a.u.). The result for “TCATCCTCACTCTCTCTGCACACTGCTTCTCGCTCCCGCTCGGAGTCACCTAGTGCAG” reads 12100 fluorescence intensity (a.u.); that for “CCCCAGCCCCAGCCCCAGCCCGACCACTTGCTCGCCGACGCGGAGTCACCTAGTGCAG”, 8360 fluorescence intensity (a.u.). Consider “AGTCAATGTGAACTTATTCCTTTCTTTCTCTTTTTTTTTTCGGAGTCACCTAGTGCAG”, for which the binding signal is 8150 fluorescence intensity (a.u.).

With “ACTACGAGTTTTTCTTGTTGAATGTGTCATCCACGTTGTTCGGAGTCACCTAGTGCAG”, the binding signal is 9510 fluorescence intensity (a.u.).

For “CGCATTTCACTACGGTTTTTCAGGCTATGTTTAGTTCAGACGGAGTCACCTAGTGCAG”, the binding signal was 8340 fluorescence intensity (a.u.).

For the sequence “GCACAAAACCCTCGAGCACCGCCCGCCGCTATATAACAACCGGAGTCACCTAGTGCAG”, the binding signal was 9960 fluorescence intensity (a.u.). Consider “TTAGTGGTGTTTATTATGTCTATTCGATCAGATGGATGCTCGGAGTCACCTAGTGCAG”, for which the binding signal is 9160 fluorescence intensity (a.u.). “GCAATTTGCCTCTTTGTTCCTCATAGTCCAGACACAATTCCGGAGTCACCTAGTGCAG”: the binding signal was 9840 fluorescence intensity (a.u.). In the case of “TACAGGCTCTCGGCCCACAAGGCGCGCTCTCTGGATCTTTCGGAGTCACCTAGTGCAG” it was 8030 fluorescence intensity (a.u.). The result for “GCTGTGCTGTTGCGATGCCGTTTCTGATGATTGCATGCACCGGAGTCACCTAGTGCAG” reads 8160 fluorescence intensity (a.u.).
